Experimental data taken from article doi:10.1101/2021.01.08.425919.
These are yes or no findings as the source states them, for the method shown. For some of these results: In cells and extracts the contact can be indirect. Some binding calls cover weakened binding; strength is not graded here. For some of these results: Tags and fused reporters may be left off the sequences shown.

Sequences of proteins named here, by UniProt entry; tags and fusion partners are left off.
UniProt O60016: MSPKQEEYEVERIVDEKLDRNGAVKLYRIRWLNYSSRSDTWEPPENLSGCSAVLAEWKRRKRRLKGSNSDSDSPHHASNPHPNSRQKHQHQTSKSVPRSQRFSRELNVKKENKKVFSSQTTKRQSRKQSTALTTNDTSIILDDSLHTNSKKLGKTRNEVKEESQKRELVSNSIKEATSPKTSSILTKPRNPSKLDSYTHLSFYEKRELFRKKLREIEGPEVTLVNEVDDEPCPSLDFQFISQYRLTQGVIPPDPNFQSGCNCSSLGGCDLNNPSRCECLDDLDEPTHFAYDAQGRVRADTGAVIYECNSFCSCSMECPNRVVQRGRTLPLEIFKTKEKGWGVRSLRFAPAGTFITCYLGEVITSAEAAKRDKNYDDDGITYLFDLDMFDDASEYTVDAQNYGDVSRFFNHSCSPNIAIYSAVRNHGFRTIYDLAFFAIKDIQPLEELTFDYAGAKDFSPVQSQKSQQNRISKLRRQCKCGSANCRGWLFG
UniProt P46595: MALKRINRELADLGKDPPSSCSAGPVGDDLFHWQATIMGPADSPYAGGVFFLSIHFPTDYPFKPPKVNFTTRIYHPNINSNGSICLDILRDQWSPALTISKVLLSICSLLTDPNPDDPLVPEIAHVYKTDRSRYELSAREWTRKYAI

Tests used:
Flag-Raf1 (S. pombe) = molecular target: T1, Flag-Raf1 (S. pombe) (UniProt O74910); assay: co-IP
T1 sequence: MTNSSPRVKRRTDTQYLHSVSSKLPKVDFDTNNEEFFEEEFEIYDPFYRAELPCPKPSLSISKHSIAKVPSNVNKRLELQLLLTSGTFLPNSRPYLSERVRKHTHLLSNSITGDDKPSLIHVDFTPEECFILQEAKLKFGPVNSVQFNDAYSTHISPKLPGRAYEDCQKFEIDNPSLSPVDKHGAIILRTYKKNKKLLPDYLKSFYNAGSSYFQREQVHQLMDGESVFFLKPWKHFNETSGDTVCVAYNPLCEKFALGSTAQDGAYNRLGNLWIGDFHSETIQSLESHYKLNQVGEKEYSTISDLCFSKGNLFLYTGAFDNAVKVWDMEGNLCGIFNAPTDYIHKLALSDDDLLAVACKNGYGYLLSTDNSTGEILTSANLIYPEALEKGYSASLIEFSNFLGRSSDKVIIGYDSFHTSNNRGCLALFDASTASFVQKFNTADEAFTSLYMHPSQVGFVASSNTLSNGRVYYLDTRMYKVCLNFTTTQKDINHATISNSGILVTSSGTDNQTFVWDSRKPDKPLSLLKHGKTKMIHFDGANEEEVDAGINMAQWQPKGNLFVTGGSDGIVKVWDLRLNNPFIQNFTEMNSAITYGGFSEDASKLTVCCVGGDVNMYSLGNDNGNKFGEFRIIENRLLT

Raf2-Flag (S. pombe) = molecular target: T2, Raf2-Flag (S. pombe) (UniProt O74560); assay: co-IP
T2 sequence: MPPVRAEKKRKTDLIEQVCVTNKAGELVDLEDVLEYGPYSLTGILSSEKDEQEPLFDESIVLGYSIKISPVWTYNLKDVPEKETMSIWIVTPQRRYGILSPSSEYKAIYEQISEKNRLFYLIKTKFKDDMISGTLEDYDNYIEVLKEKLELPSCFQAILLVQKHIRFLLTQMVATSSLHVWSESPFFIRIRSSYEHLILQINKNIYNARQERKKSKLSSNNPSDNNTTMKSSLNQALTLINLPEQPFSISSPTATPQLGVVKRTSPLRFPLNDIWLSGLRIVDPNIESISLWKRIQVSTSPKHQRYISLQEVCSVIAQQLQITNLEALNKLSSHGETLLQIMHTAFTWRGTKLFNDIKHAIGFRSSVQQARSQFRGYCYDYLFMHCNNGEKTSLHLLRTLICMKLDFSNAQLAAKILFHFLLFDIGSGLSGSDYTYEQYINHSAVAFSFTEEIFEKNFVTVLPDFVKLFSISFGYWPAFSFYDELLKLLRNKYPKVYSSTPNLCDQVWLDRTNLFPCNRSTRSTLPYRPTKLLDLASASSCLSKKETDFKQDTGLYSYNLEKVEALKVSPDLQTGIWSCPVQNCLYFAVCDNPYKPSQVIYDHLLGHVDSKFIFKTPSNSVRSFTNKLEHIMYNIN

Cul4-GFP (S. pombe) = molecular target: T3, Cul4-GFP (S. pombe) (UniProt O14122); assay: co-IP
T3 sequence: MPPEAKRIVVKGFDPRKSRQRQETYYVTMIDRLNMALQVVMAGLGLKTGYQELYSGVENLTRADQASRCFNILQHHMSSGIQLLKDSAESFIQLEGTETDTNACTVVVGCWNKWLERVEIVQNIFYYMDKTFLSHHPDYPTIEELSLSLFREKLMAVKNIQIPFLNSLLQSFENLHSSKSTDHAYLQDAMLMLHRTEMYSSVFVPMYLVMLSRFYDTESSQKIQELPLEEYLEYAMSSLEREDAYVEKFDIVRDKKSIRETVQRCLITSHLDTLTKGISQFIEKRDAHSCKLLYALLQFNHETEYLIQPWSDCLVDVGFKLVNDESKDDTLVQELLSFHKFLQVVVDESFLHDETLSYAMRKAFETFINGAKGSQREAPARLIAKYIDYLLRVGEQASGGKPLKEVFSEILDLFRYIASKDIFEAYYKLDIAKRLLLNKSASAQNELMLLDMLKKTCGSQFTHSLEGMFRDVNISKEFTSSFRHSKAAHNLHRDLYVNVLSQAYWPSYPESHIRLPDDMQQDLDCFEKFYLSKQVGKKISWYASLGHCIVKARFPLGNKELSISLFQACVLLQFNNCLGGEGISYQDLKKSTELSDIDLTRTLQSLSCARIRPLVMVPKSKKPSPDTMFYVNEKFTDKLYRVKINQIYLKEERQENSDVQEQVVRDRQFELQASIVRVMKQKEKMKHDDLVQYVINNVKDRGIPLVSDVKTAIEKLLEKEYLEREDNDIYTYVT

[1] = molecular target: recombinant Clr4 (Flag-Clr4 and Myc-Clr4 copies) (S. pombe) (UniProt O60016); assay: pull-down

binding (Flag-Raf1 (S. pombe)) | binding (Raf2-Flag (S. pombe)) | binding (Cul4-GFP (S. pombe)) | binding [1] | Substance
binds | binds | binds |  | E2 ubiquitin conjugating enzyme Ubc4 (from UniProt P46595 1-147)
 |  |  | binds weakly | recombinant Clr4 (Flag-Clr4 and Myc-Clr4 copies) (from UniProt O60016 1-490) (enzyme)
